Experimental data as given in PMC10826163.
No constants are given. Whether binding was seen depends on the method and setting. Binding seen in cells or lysates may run through a third protein. A yes stands for co-enrichment or nearness to the bait. Other partners may have been found.

Target: Traf2-and NcK-interacting kinase (rat (endogenous in rat hippocampus))
Experiment: affinity purification with mass spectrometry; anti-TNIK immunoprecipitate from rat hippocampal lysate (control: normal mouse IgG), SDS-PAGE, silver stain, bands seen only in the TNIK Co-IP cut out, trypsin digest, LC-MS/MS, Mascot against UniProt Rattus norvegicus, score >=20

| Binder | binding |
| --- | --- |
| RAS protein activator like 1 (GAP1 like) (predicted) (protein, UniProt D3ZHY9 1-801) MAKSGSLSIRVVEGRALPAKDVSGSSDPYCLVKVDDEVVARTATIWRSLSPFWGEEYTVHLPLDFHHLAFYVLDEDTVGHDDIIGKISLSKEAITADPRGIDSWINLSRVDPDEEVQGEVCLAVKLLEDARGRCLRCHVRQARDLAPRDISGTSDPFARVFWGSRSLETSTIKKTRFPHWDEVLELREAPGTTSPLRVELWDWDMVGKNDFLGMVEFTPQTLQQKPPNGWFRLLPFPRAEDSGGSLGALRLKVRLTEDRVLPSQYYQPLMELLLESVQGPAEEDTTSPLALLEELASGDCRQDLATKLVKLFLGRGLAGPFLDYLTRREVARTNDPNTLFRSNSLASKSMEQFMKLVGMRYLHEVLRPVISRVFEEKKYMELDPSKMDLNRSRRISFKGTPTEEQVRETSLGLLTGYLGSVVDAIVSSAGRCPLALRLAFKQLQQCVEKRFPGMEHQDVKYLATSGFLFLRFFAPAILTPKLFDLRDHHADPQTSRSLLLLAKAVQSIGNLGQQLGQGKEQWLAPLHPFLLQSISRVRDFLDQLVDVDGDEEAGGSTCALVQPSTIVREGFLLKRKEEPASLATRFAFKKRYFRLSGRDLSYSKTPEWQVHSSIPLSCIRAVERVDEGAFQLPHVMQVVTQDGTGASHTTYLQCKNVNDLNQWLSALRKASAPNPGKLAACHPGAFRSGRWTCCLQAERSAVGCSRTHSAVTLGDWSDPLDPDAEAQMVYRQLLLGRDQLRLKLLEDSSLDTAPDVDPGKDSSAVDGPCAEVLAQQREATTRLLQVLEDLEQAHEEFQKRG | binds |
| RCG21137 (protein, UniProt Q562B5 1-288) MAFRQALQLAACGLAGGSAAVLFSAVAVGKPRAGGDADTRTTEPLAWTGARPGHGVWDSNWDRREPLSLINLKKRNVEFGEDELASRLDHYKAKATRHIFLIRHSQYNVDGSMEKDRTLTPLGREQAELTGIRLASLGLKFNKIVHSSMTRAVETTDIISKHLPGVCRVSTDLLREGAPIEPDPPVSHWKPEAVQYYEDGARIEAAFRNYIHRADAKQEEDSYEIFICHANVIRYIVCRALQFPPEGWLRLSLNNGSITHLVIRPNGRVALRTLGDTGFMPPDKITRS | binds |
| Trafficking protein particle complex 12 (protein, UniProt D3ZE49 1-798) METAKDGEQSPSEASPPTQAGPETISEPVPLEEEGQPLYHEETIDLGGDDFASEETEPTSEGSHNFGDKLNEHMMESVLISDSPNNSEGDVGDLGCLQDVGEPPRGATDHRLPDSTDKEVVDTLSNGSETDGDDTPRDISDMTPDSRASLKEDSTQEDVPAMPALENAGTEEVGPKDSLVPREEQTSEVSSSQSSSKDEPLPVCTIFSQATSTSSQPHLFLQDGFESQMVKSPSFSSTSETSAKTPPPMVQPSPSLSTFFGDTMSSNSLASDFFDSFTTSTFISVSNPNAGSPVPEKLASLTAPVGEKSPDSTSPSYSTRMDRSESGVSRAALDVPESPKPFSQIQAVFAGSDDPFATALSMSEMDRRNDAWLPSQATREVLMSVATQQYGTVFIDKENLTMPGLKFDNIQGDAVKDLMLRFLGEKAAAKRQVLNASSVEQSFVGLKQLISCRNWRAAVDLCGRLLTAHGQGYGKSGLPTNHTTDSLQLWFVRLALLVKLGLFQNAEMEFEPFGNLDQPDLYYEYYPHVYPGRRGSMVPFSMRILHAELQQYLGNPQESLDRLHRVKTVCSKILANLEQGLAEDGGLSSVTQESRQASVQLWRSRLGRVLYSMANCLLLMKDYVLAVNAYLTVIKYYPEQEPQLLSGIGRILLQQIGDIKTAEKYFQDVEKVTQKLDGLQGKIMVLMNRAFLYLGQNNFAEAHKFFTEILRMDPTNAVANNNAAVCLLYLGKLKDSLRQLEAMVQQDPRHYLHESVLFNLTTMYELESSRSMQKKQSLLEAVASKEGDSFNTQCLKLA | binds |
| CTTNBP2 N-terminal like (predicted), isoform CRA_a (protein, UniProt D4A8X8 1-638) MNLEKLSKPELLTLFSILEGELEARDLVIEALKAQHRDTFIEERYGKYNISDPLMALQRDFETLKEKNDSEKQPVCTNPLSILKAVMKQCKNMQERMLSQLAAAESRHRKVILDLEEERQRHAQDTAEGDDVTYMLEKERERLTQQLEFEKSQVKKFEKEQKKLSSQLEEERSRHKQLSSMLVLECKKATSKAAEEGQKAGELSLKLEKEKSRASKLEEELAAERKRGLQTEAQVEKQLSEFDIEREQLRAKLNREENRTRALKEEMESLKKLVKDLEAAQQHSNSSEQGREPVTTSRGTATEPPMRVSVFCQTESIQTERSHSSIMTKLTDTGLPGPSSAPYPYAKANGHCDPETQTTRELTSDSSTENQGPPREKSAVPAQEKPMENGGCPVGTEIPVTMPSHLPSSGSSLSPSSTASSSLTSSPCSSPVLTKRLLGSSVSSPGYQSSYQVGVNQRFHAARHRFQSQADQDQQASGLQSPPSRDLSPTLLDNSAAKQLARNTVTQVLSRFTNQGPIKPVSPNSSPFGTDYRNLVSTANPRGDTSHSPTPGKVSSPLSPLSPGIKSPTIPRAERGNPPPIPPKKPGLTPSQSVATPGTKTHSQASSLTTTEDLASSCSPSAVVANGKDVEMLVPTSS | binds |
| Plasminogen receptor (KT) (protein, UniProt D4ACN8 1-147) MGFIFSKSMNENMKNQQEFMVMHARLQLERQLIMQNEMRERQMAMQIAWSREFLKYFGTFFGIATISLAAGAIKRKKPAFLIPIVPLSFIFTYQYDLGYGTLLQRMKSEAEDILETEKTKLELPKGLITFESLEKARREQSKFFSDK | binds |
| Tripartite motif protein 45 (predicted), isoform CRA_b (protein, UniProt D4A7S9 1-579) MSENRKPLPGFVNKLQDASASGSSGKTHCPSCLRLFKVPRLLPCLHTVCTSCLERLDPFSVVDIRGGDSDTSSEGSIFQEPKSCSLKPQIGILCPVCDAQVDLPLGGVKALTVDHLAMNDVMLESLHGEGQGLVCDLCSDREVEKRCQTCKANLCHFCCQAHRRQKKTTDHTMVDLKDLKGYSRVGKPILCPSHPAEELRLFCELCDRPVCRDCVVGEHREHPYDFTSNVIHKHGDSVRELLRDTQPHVEALEDALAQIKSSNNALQERVEAVAADVRTFSEGYIRAIEEHRDKLLRQLDDIRVQKENSLQLQKAQLEQLLADMRTGVEFTEHLLTSGSDLEILVTKGVVVERLRKLNKVEYSARPGVNHKICFSPQEKARCQGYEVYGAINTQEVDPAQCVLQGEDLHRAREKQTASFTLVCKDATGESMSRGGDNVRVEVVPKNKKDSPIRTVVQDNKDGSYRVSYTPKEPGVYTVWVGIREQQVQGSPFNVTVRRKHRPHPGVFHCCTFCSSGGQKTARCACGGTMPGGYLGCGHGHKGHPGRPHWSCCGKFIEKSECSYSTGQSAPRSLLRTVAL | binds |
